Measurements as given in patent publication US20060148714A1 (priority 1999, published 2006).

Assay: general procedure: Fmoc solid-phase peptide synthesis; polystyrene 1% DVB Fmoc-Rink amide resin, 0.56 mmoles/gram; DIC/HOBt and HBTU/HOBt/DIEA, double coupling
Conditions: whole synthesis, Michrom Ultrafast Microprotein Analyzer, C-8 Zorbax column, 214 nm, peak area, scale of the general procedure generally 0.25 grams of starting resin (0.1-5 grams)

| Substance | crude HPLC purity |
| --- | --- |
| 1-naphthylacetyl-k-l-f-r-(naph-a)-q-a-k (KLFRAQAK; 1-naphthylacetyl cap; D-residues; naphthylalanine; derived from human; SITE (1)..(8) XMP.671) | 91.0% |
| 2-biphenylenecarbonyl-k-l-f-r-(naph-a)-q-a-k (KLFRAQAK; 2-biphenylenecarbonyl cap; D-residues; naphthylalanine; derived from human; SITE (1) XMP.699) | 75.5% |
| 2-naphthylacetyl-k-l-f-r-(naph-a)-q-a-k (KLFRAQAK; 2-naphthylacetyl cap; D-residues; naphthylalanine; derived from human; SITE (1)..(8) XMP.666) | 82.9% |
| 4-biphenylcarbonyl-k-l-f-k-(biphenyl-a)-q-a-k | 98.9% |
| 4-biphenylcarbonyl-k-l-f-k-(naph-a)-q-a-k (KLFKAQAK; 4-biphenylcarbonyl cap; D-residues; naphthylalanine; derived from human; SITE (1)..(8) XMP.767) | 96.0% |
| 4-biphenylcarbonyl-k-l-f-r-(biphenyl-a)-q-a-k | 97.2% |
| 4-biphenylcarbonyl-k-l-f-r-(naph-a)-q-a-k (KLFRAQAK; 4-biphenylcarbonyl cap; D-residues; naphthylalanine; derived from human; SITE (1)..(8) XMP.664) | 99.0% |
| k-(aminoisobutyric acid)-f-r-(naph-a)-q-a-k-(naph-a) | 79.7% |
| k-a-f-k-(naph-a)-q-a-k-(naph-a)-k-G (KAFKAQAKAKG; D-residues; naphthylalanine; derived from human; SITE (1)..(11) XMP.764) | 90.0% |
| k-a-f-r-(naph-a)-q-a-k-(naph-a) (KAFRAQAKA; D-residues; naphthylalanine; derived from human; SITE (1)..(9) XMP.760) | 98.0% |
| k-l-f-k-(naph-a)-q-a-k-(naph-a) (KLFKAQAKA; D-residues; naphthylalanine; derived from human; SITE (1)..(9) XMP.776) | 96.4% |
